# About 5,400 (1.8%) of roughly 300,000 compounds were called active. Inconclusive means that the source gave no clear call. Such entries were picked first, then a sample of the others. Calls come from the whole dose curve; tested in HEK293 cells. Potencies beside an inconclusive call are fits to weak or partial responses and may not hold up. More than one record can exist for a structure, and the calls need not agree.
# Assay: qHTS for inhibitors of binding or entry into cells for Marburg Virus
# Conditions: Marburg virus pseudotyped entry inhibition, cell reporter; series mostly up to 37.8 µM
# Potency is the fitted concentration of half-maximal effect.
row,Compound,Potency
1,CCOC(=O)N1CCN(C(=O)CSCC(=O)Nc2nc(-c3ccccc3)cs2)CC1,"inconclusive: 14.6 µM [inhibitor, partial curve, poor fit]"
2,CC(=O)N1N=C(c2ccco2)CC1c1ccc(Br)cc1 (stereo not drawn),inactive
3,CC(C)COC[C@H](CN(Cc1ccccc1)c1ccccc1)N1CCCC1,"inconclusive: 29.1 µM [inhibitor, single point]"
4,O=C(c1cc2ncccn2n1)N1CCc2c([nH]c3ccccc23)C1c1ccccc1F (stereo not drawn),"inconclusive: 15.8 µM [inhibitor, partial curve, poor fit]"
5,CCC(=O)Nc1ccc(Cl)c(NC(=O)c2ccccc2OC)c1,"inconclusive: 4.47 µM [inhibitor, partial curve, poor fit]"
6,CCC1C=C(c2ccccc2)C=CN=C1N(CC)CC (stereo not drawn),"inconclusive: 22.4 µM [inhibitor, single point]"
7,COc1ccc(/C(N)=N/OC(=O)c2cccs2)cc1OC,"inconclusive: 14.1 µM [inhibitor, single point]"
8,CCC(=O)c1ccc(OCC(=O)OCC(=O)NC2CCCC2)cc1,"inconclusive: 0.891 µM [activator, single point]"
9,CC(C)CCNC(=O)CN1C(=O)NC(c2ccccc2)(c2ccccc2)C1=O,inactive
10,Cc1nn(C2CCCCC2)c(N)c1-c1ccccc1,inactive
11,CCN(CC)C(=O)c1ccccc1NC(=O)c1ccccc1C,"inconclusive: 2.51 µM [activator, partial curve, poor fit]"
12,CC(NC(=O)C1CC2CCCC(C1)C2=O)c1ccccc1 (stereo not drawn),"inconclusive: 0.316 µM [inhibitor, partial curve, poor fit]"
13,COc1ccc(C2=Nc3cccc4cccc(c34)N2)cc1,inactive
14,CCn1c(SCC(=O)Nc2cccc(C)c2)nc2nc3c(cc2c1=O)COC(C)(C)C3,"inconclusive: 22.4 µM [inhibitor, single point]"
15,CCN(CC)S(=O)(=O)c1cc(C)ccc1NC(=S)Nc1cccnc1,active: 11.2 µM
16,COc1ccc(-n2c(C)cc(C(=O)Cn3nc(C(=O)O)c4ccccc4c3=O)c2C)cc1,inactive
17,COC(=O)[C@@]1(C=C2c3ccc(F)cc3[C@@H](OC)[C@@H]2C)[C@@H]2OCCC[C@@H]21,"inconclusive: 0.335 µM [activator, partial curve, poor fit]"
18,O=C(COC(=O)c1ccc(O)cc1O)NNC(=O)c1cccs1,"inconclusive: 1.12 µM [activator, full curve, poor fit]"
19,O=C(c1ccco1)n1nc(-c2ccccc2)nc1SCc1ccccc1,inactive
20,Cc1nc2ncnn2c(N2CCC(C(=O)NC3CCCC3)CC2)c1Cc1ccccc1,inactive
21,COc1cc(-c2nc(Cn3nnc(C(=O)Nc4ccc(C)cc4C)c3C)c(C)o2)cc(OC)c1OC,inactive
22,COc1ccc(C(=O)Nn2c(SCC(=O)c3ccccc3)nc3ccccc3c2=O)cc1,"inconclusive: 29.1 µM [inhibitor, single point]"
23,Cc1oc(-c2ccccc2F)nc1CS(=O)(=O)CC(=O)NCCc1ccc(Cl)cc1,inactive

row,Compound,Potency
1,Cc1ccccc1CN(c1ccc(C(=O)NCC2CCCO2)cc1)S(C)(=O)=O (stereo not drawn),"inconclusive: 0.1 µM [inhibitor, full curve, poor fit]"
2,CCCN(CCC)CCCNC(=O)c1cn(C)c2ccc(S(=O)(=O)N(C)C3CCCCC3)cc2c1=O,inactive
3,CCN1C(=O)N[C@@H](c2cccs2)C(C(C)=O)=C1C,"inconclusive: 0.422 µM [inhibitor, full curve, poor fit]"
4,CCCN1CCN(c2ccc([N+](=O)[O-])cc2C#N)CC1,"inconclusive: 1 µM [inhibitor, partial curve, poor fit]"
5,COCCNC(=O)CSc1ccccc1C(=O)NC1CCSc2ccccc21 (stereo not drawn),inactive
6,Cc1nc(-c2ccc(F)cc2)c(CC(=O)N(C)CC(=O)Nc2ccc(F)cc2)s1,inactive
7,Cn1c(=O)oc2cc(S(=O)(=O)N3CCC(C(=O)Nc4ccc(F)c(Cl)c4)CC3)ccc21,"inconclusive: 1.26 µM [inhibitor, partial curve, poor fit]"
8,CC(=O)c1cc(CN2CCC(N3CCC(C(=O)N4CCCC4)CC3)CC2)cs1,"inconclusive: 0.631 µM [inhibitor, full curve, poor fit]"
9,Cc1ccc2occ(/C=N/NC(=O)c3ccc(Cl)cc3)c(=O)c2c1,inactive
10,Cc1ccc(OCCOc2cccc3ccc(C)nc23)c([N+](=O)[O-])c1,inactive
11,Cc1cc(C)cc(Oc2c(C(F)(F)F)oc3cc(OCC(=O)NC4CCCCC4)ccc3c2=O)c1,inactive
12,CCOC(=O)C1(CCOc2ccccc2)CCN(Cc2nccn2CC)CC1,"inconclusive: 35.5 µM [inhibitor, single point]"
13,O=C1NC2c3c(I)sc(I)c3C(=O)C2O1 (stereo not drawn),"inconclusive: 35.5 µM [inhibitor, single point]"
14,CC(=O)Oc1ccc(C23c4ccccc4C2(OC(C)=O)c2cc(OC(C)=O)ccc23)cc1 (stereo not drawn),"inconclusive: 22.4 µM [inhibitor, partial curve, poor fit]"
15,O=C1CCCC=C1C(CCc1ccccc1)OC(=O)c1ccc(Br)cc1 (stereo not drawn),"inconclusive: 0.422 µM [activator, full curve, poor fit]"
16,CC1(c2ccccc2)CC(C)(C)N2C(=O)/C(=C3\SC(=S)NC3=O)c3cccc1c32 (stereo not drawn),"inconclusive: 5.62 µM [inhibitor, single point]"
17,N#C/C(=C\C=C\c1ccccc1)C(=O)NCc1cccnc1,"inconclusive: 35.5 µM [inhibitor, single point]"
18,N#CC1=C(N)OC2=C(C(=O)CC(c3ccco3)C2)C1c1ccc(OCc2c(F)cccc2Cl)cc1 (stereo not drawn),"inconclusive: 11.2 µM [inhibitor, partial curve, poor fit]"
19,CC1(C)CC(=O)C2=C(C1)N(CC1CCCO1)C(=O)C2(NC(=O)c1cccnc1)C(F)(F)F (stereo not drawn),"inconclusive: 0.82 µM [activator, full curve, poor fit]"
20,Cc1ccc(CNC(=O)C(=O)NCC2OCCN2C(=O)c2ccc3c(c2)OCO3)cc1 (stereo not drawn),"inconclusive: 0.562 µM [inhibitor, partial curve, poor fit]"
21,Clc1ccc(CSc2cnnc3ccccc23)cc1Cl,"inconclusive: 2.51 µM [inhibitor, single point]"
22,CSCC[C@H](NC(=O)OC(C)(C)C)c1nnc(SCc2ccccc2)o1,"inconclusive: 7.08 µM [inhibitor, partial curve, poor fit]"
23,CC1(C)CC2(C)OCCN2C(=S)N1 (stereo not drawn),"inconclusive: 5.62 µM [activator, single point]"

row,Compound,Potency
1,N#Cc1nc(-c2ccccc2F)oc1NCc1cccc2c1OCO2,"inconclusive: 32.6 µM [activator, partial curve, poor fit]"
2,CCOC(=O)CSc1nc2ccccc2c(=O)n1Cc1ccco1,inactive
3,CC(C)Nc1nc(NC(C)C)nc(N(C)n2cnnc2)n1,"inconclusive: 15.8 µM [activator, partial curve, poor fit]"
4,COc1ccc(NC(=O)C2C3CCC(O3)C2C(=O)O)c(OC)c1 (stereo not drawn),"inconclusive: 1.41 µM [inhibitor, partial curve, poor fit]"
5,Cn1c(=O)c2c(nc(CN3CCc4ccccc4C3)n2Cc2ccccc2)n(C)c1=O,"inconclusive: 10 µM [inhibitor, partial curve]"
6,O=C(NCCC1=CCCCC1)C1COc2ccccc2O1 (stereo not drawn),"inconclusive: 0.398 µM [inhibitor, partial curve, poor fit]"
7,O=C(NCCN1CCOCC1)c1cc(-c2ccc(F)cc2)nc2ccccc12,inactive
8,CCCN(CCC)CCc1ccc(O)c(O)c1,active: 1 µM
9,CN1C(=O)/C(=C/C=C2/CCCN2C)N(C)C1=S,"inconclusive: 11.2 µM [activator, single point]"
10,Cc1cccc(N2CCN(C(=O)CCn3c(=O)[nH]c4ccsc4c3=O)CC2C)c1 (stereo not drawn),"inconclusive: 35.5 µM [inhibitor, single point]"
11,CCOc1ccc(NC(=O)c2cnc(Nc3ccccc3OC)c3ccccc23)cc1,"inconclusive: 3.16 µM [activator, single point]"
12,Cc1ccc(CCNC(=O)CN(C)S(=O)(=O)c2cnc[nH]2)cc1,"inconclusive: 35.5 µM [activator, single point]"
13,N#Cc1sc2nc3c(cc2c1N)CCCC3,"inconclusive: 11.2 µM [inhibitor, single point]"
14,CCOc1ccccc1C(=O)Nc1cccc(-c2ccc3nncn3n2)c1,active: 7.08 µM
15,CCn1c2ccccc2c2cc(NC(=O)CN3CCCC3)ccc21,"inconclusive: 1.41 µM [inhibitor, full curve, poor fit]"
16,COc1ccc(-c2[nH]ncc2CN(C)C(C)c2cccs2)c(F)c1 (stereo not drawn),"inconclusive: 10 µM [inhibitor, partial curve, poor fit]"
17,C=CCOc1c(CNc2ccc3[nH]c(=O)[nH]c3c2)cccc1OC,"inconclusive: 35.5 µM [activator, single point]"
18,O=C(CSc1nc2ccccc2o1)N/N=C/c1ccc(C(=O)O)cc1,inactive
19,CN(C)Cc1nnnn1-c1cccc(-n2nnnc2CN(C)C)c1,inactive
20,CC1=C(C(N)=O)C(c2cccs2)NC(=S)N1 (stereo not drawn),"inconclusive: 3.16 µM [activator, single point]"
21,CC(C)(C)C(=O)/C=C(\N)c1ccncc1,"inconclusive: 35.5 µM [inhibitor, single point]"
22,O=C1CSC(c2ccccn2)N1c1ccc(F)cc1F (stereo not drawn),"inconclusive: 6.31 µM [inhibitor, partial curve, poor fit]"

# — PubChem BioAssay AID540276 (National Center for Advancing Translational Sciences (NCATS), 2011)
